PubChem BioAssay AID493246 | Drosophila RNAi Screening Center | 2011
Screen: 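Genome-wide search for dsRNAs that reduce cell number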 (primary screen). Cell system: Drosophila Kc and S2R+ cells. Reagents: long dsRNA against Drosophila genes. Detection: 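Raw, unnormalised count of remaining cells in each well; per-plate z-scores of cell number underlie the calls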. Direction: Kc cell number and S2R+ cell number: higher = more cells remaining. Rule for the call: 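Counted as a hit if cell number falls by a z-score of at least 3 within its plate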.
In all, the deposit lists about 21,000 reagents; this is a random part of those with a known target gene and a result. Over the whole deposit, 429 (2%) were called active. 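Values are raw and not normalised between plates; calls rest on per-plate z-scores that were not deposited.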 Entries without a mark were called inactive. No sequences are given here. Not stated in the record: the amount of reagent, the time to read-out.

CG3301 [DRSC15471] | Kc cell number, rep 1 = 1.55e6; Kc cell number, rep 2 = 1.61e6; S2R+ cell number, rep 1 = 1.33e6; S2R+ cell number, rep 2 = 1.41e6
mirr [DRSC11369] | Kc cell number, rep 1 = 1.64e6; Kc cell number, rep 2 = 1.71e6; S2R+ cell number, rep 1 = 1.35e6; S2R+ cell number, rep 2 = 1.46e6
CG42327 [DRSC14936] | Kc cell number, rep 1 = 1.53e6; Kc cell number, rep 2 = 1.70e6; S2R+ cell number, rep 1 = 1.25e6; S2R+ cell number, rep 2 = 1.40e6
CG42327 [DRSC14937] | Kc cell number, rep 1 = 1.66e6; Kc cell number, rep 2 = 1.71e6; S2R+ cell number, rep 1 = 1.27e6; S2R+ cell number, rep 2 = 1.43e6
Rcd6 [DRSC06054] | Kc cell number, rep 1 = 1.38e6; Kc cell number, rep 2 = 1.43e6; S2R+ cell number, rep 1 = 1.10e6; S2R+ cell number, rep 2 = 1.19e6
CG3149 [DRSC17732] | Kc cell number, rep 1 = 6.25e5; S2R+ cell number, rep 1 = 8.56e5
spdi [DRSC18487] | Kc cell number, rep 1 = 5.39e5; S2R+ cell number, rep 1 = 7.89e5
spdi [DRSC18488] | Kc cell number, rep 1 = 1.50e6; Kc cell number, rep 2 = 1.51e6; S2R+ cell number, rep 1 = 9.44e5; S2R+ cell number, rep 2 = 1.08e6
Art4 [DRSC15779] | Kc cell number, rep 1 = 1.73e6; Kc cell number, rep 2 = 1.71e6; S2R+ cell number, rep 1 = 1.40e6; S2R+ cell number, rep 2 = 1.52e6
Fatp (retired record) [DRSC03054] | Kc cell number, rep 1 = 1.35e6; Kc cell number, rep 2 = 1.33e6; S2R+ cell number, rep 1 = 1.04e6; S2R+ cell number, rep 2 = 1.00e6
whd [DRSC07351] | Kc cell number, rep 1 = 1.37e6; Kc cell number, rep 2 = 1.41e6; S2R+ cell number, rep 1 = 1.16e6; S2R+ cell number, rep 2 = 1.24e6
CG10104 [DRSC05964] | Kc cell number, rep 1 = 1.65e6; Kc cell number, rep 2 = 1.58e6; S2R+ cell number, rep 1 = 1.40e6; S2R+ cell number, rep 2 = 1.52e6
Pebp1 [DRSC15354] | Kc cell number, rep 1 = 1.34e6; Kc cell number, rep 2 = 1.53e6; S2R+ cell number, rep 1 = 9.99e5; S2R+ cell number, rep 2 = 1.00e6
CG18301 [DRSC02662] | Kc cell number, rep 1 = 1.61e6; Kc cell number, rep 2 = 1.69e6; S2R+ cell number, rep 1 = 1.32e6; S2R+ cell number, rep 2 = 1.54e6
Ser [DRSC16856] | Kc cell number, rep 1 = 1.47e6; Kc cell number, rep 2 = 1.48e6; S2R+ cell number, rep 1 = 1.04e6; S2R+ cell number, rep 2 = 1.10e6
Rgk3 [DRSC04250] | Kc cell number, rep 1 = 1.59e6; Kc cell number, rep 2 = 1.68e6; S2R+ cell number, rep 1 = 1.17e6; S2R+ cell number, rep 2 = 1.27e6
Rgk3 [DRSC04251] | Kc cell number, rep 1 = 1.78e6; Kc cell number, rep 2 = 1.82e6; S2R+ cell number, rep 1 = 1.23e6; S2R+ cell number, rep 2 = 2.10e5
Rgk3 [DRSC04254] | Kc cell number, rep 1 = 1.64e6; Kc cell number, rep 2 = 1.64e6; S2R+ cell number, rep 1 = 1.16e6; S2R+ cell number, rep 2 = 2.47e5
Rgk3 [DRSC04255] | Kc cell number, rep 1 = 1.60e6; Kc cell number, rep 2 = 1.68e6; S2R+ cell number, rep 1 = 1.27e6; S2R+ cell number, rep 2 = 2.20e5
ssx [DRSC18492] | Kc cell number, rep 1 = 5.76e5; S2R+ cell number, rep 1 = 6.21e5
lwr [DRSC00828] | Kc cell number, rep 1 = 1.30e6; Kc cell number, rep 2 = 1.31e6; S2R+ cell number, rep 1 = 6.60e5; S2R+ cell number, rep 2 = 7.51e5

A run of entries of the results above, for reference:
Ser [DRSC16856] | Kc cell number, rep 1 = 1.47e6; Kc cell number, rep 2 = 1.48e6; S2R+ cell number, rep 1 = 1.04e6; S2R+ cell number, rep 2 = 1.10e6
Rgk3 [DRSC04250] | Kc cell number, rep 1 = 1.59e6; Kc cell number, rep 2 = 1.68e6; S2R+ cell number, rep 1 = 1.17e6; S2R+ cell number, rep 2 = 1.27e6
